For series [1], the system named is T1, soluble ST2 (sST2, IL1RL1 soluble isoform) (Homo sapiens).
T1 sequence (looked up, limits assumed): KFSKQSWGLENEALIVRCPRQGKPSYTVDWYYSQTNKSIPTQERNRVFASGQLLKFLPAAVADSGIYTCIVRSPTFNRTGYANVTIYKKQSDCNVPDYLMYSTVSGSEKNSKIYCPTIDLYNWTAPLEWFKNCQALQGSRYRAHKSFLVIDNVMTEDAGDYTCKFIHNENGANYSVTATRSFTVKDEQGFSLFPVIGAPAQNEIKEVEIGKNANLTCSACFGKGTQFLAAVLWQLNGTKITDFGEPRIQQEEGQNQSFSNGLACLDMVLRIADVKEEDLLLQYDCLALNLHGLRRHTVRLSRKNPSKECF
Kind of series: binding assay. The conditions noted are these: fiber-optic fluorescence, sST2 immobilised; 137 mM NaCl, 2.7 mM KCl, phosphate; label: Cy5.5 (affinity assay); single-stranded DNA.

For series [2] the test system is unchanged. Nature of the series: EMSA. The following applies: strong binding; room temperature 30 min; single-stranded DNA. Background: Mobility shift assays separate free from complexed probe on a gel.

The exact form of at least one protein or probe is not confirmed. Tags and fusion partners may be left off the protein sequences shown.

Consider five sequences from patent US20240229045, “APTAMER FOR SPECIFICALLY RECOGNIZING SOLUBLE ST2 PROTEIN AND APPLICATION OF THE SAME” (BEIJING INSTITUTE OF HEART, LUNG AND BLOOD VESSEL DISEASES, published 2024).

What is called Kd is a measure of binding affinity in units of concentration. A lower Kd goes with higher affinity.

In turn, “CCTCCATCCACTCGGCGCAACGCCGGGGCTCGGCC [Apt5]” showed a dissociation constant Kd in series [1] of 188 nM.
“TCCATGCACTCGCCCTTGAAAGGGTTCCCTCCGTT [Apt7]”: the binding result in series [2] was “binds”.
Still for that read-out and setting: in the case of “TCCATGCACTCGCGCTACCGGCGTGCCCGTAGATC [Apt9]” it was “binds”.
“TCCATTCACTCGACCGCTGACGCGGGTGTCGTTTT [Apt6]” came in with an equilibrium dissociation constant (Kd) in series [1] of 173 nM.
In the case of “TCCATTCACTCGCAGCGGGGTCGCGTGAGGCGCAA [Apt10]”, the binding result in series [2] is on record as “binds”.
